Source: PubChem BioAssay AID493014 (National Center for Advancing Translational Sciences (NCATS), 2011)
Among all 340,000 compounds or so, about 170 (0.05%) were called active. The inconclusive results got no clear call from the source; some entries with a clear call stand among them for comparison. Calls come from the whole dose curve; as a rule, active = well fitted inhibition curve with a large enough effect in the signal ratio, with a control signal flat (not every such curve was filed as active); inconclusive = small, poorly fitted or top-dose-only effect, or effect the other way, or a change in a side signal; inactive = flat fitted curve, though single readings scatter; the % refers to the signal ratio. A potency beside an inconclusive call is a rough fit, not a confirmed value.

assay: qHTS Assay to Find Inhibitors of Chronic Active B-Cell Receptor Signaling; conditions: ABC-DLBCL IkBa-CBG/CBR reporter, luminescence ratio (green luciferase fused to IkBa over red control in TMD8 lymphoma cells), 4 h; activity change, negative = inhibition: at 46.1 µM (top of the series);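 for activity change, negative = inhibition: plate controls were basal doxycycline-induced cells for no effect and cells given 10 µM MG132 for full effect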
In short: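 TMD8 ABC-DLBCL cells carrying doxycycline-inducible green luciferase fused to IkappaBalpha plus unfused red luciferase were exposed to compounds (up to 46 uM) for 4 hrs at 37C. Activity came from the overlap-corrected green/red luminescence ratio.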
Potency is the fitted concentration of half-maximal effect.

SMILES | Potency | activity change, negative = inhibition
CC(C)CCNC(=O)NC(=O)COC(=O)c1cc(S(=O)(=O)N2CCOCC2)ccc1N1CCCCC1 | inconclusive: 3.66 µM [falling, single point] | –
Cc1cccc(N=Nc2c(C)nn(-c3ccccc3)c2N)c1C | – | inconclusive: 0.82%
CCCCNS(=O)(=O)c1ccc2nc(-c3cccs3)cc(C(=O)NCC(OC)OC)c2c1 | – | inconclusive: -0.176%
CCOC(=O)c1c(NC(=O)NC(C)(C)C)sc2c1CCN(C)C2 | – | inconclusive: 4.2%
NS(=O)(=O)c1ccc(CNC(=O)c2cc(=O)c3cc(Cl)ccc3o2)cc1 | – | inconclusive: 2.12%
Cc1ccc(COC(=O)CN2C(=O)NC3(CCCCC3C)C2=O)cc1 (stereo not drawn) | – | inactive: -0.123%
C/C(Cl)=C\Cn1c(O)c(N=NC(N)=S)c2cc(Br)ccc21 | inconclusive: 5.62 µM [falling, single point] | –
Cc1ccc(C)c(NC(=O)C2(C)CC3c4ccccc4C2c2ccccc23)c1 (stereo not drawn) | – | inconclusive: 14.2%
Cc1c(Nc2nc3ccccc3nc2NS(=O)(=O)c2cccs2)c(=O)n(-c2ccccc2)n1C | – | inconclusive: 12.1%
Cc1cc(C)c2c(c1)/C(=N/NS(=O)(=O)c1ccc(Br)cc1)CCC2 | inconclusive: 0.164 µM [rising, full curve, poor fit] | –
COc1ccc(NC(=O)CSc2nccc(C)n2)cc1 | – | inconclusive: 7.97%
O=C(CSc1n[nH]c(=O)[nH]c1=O)c1ccccc1[N+](=O)[O-] | – | inconclusive: -6.57%
COc1ccc(/C=N/NC(=O)c2ccc3c(c2)NC(=O)C(C)(C)O3)cc1OC | inconclusive: 10 µM [falling, partial curve] | –
CCSc1nsc(NC(=O)Nc2cccc(F)c2)n1 | – | inconclusive: 224%
Cc1cc(C)c2[nH]c(=O)c(CN(CC3CCCO3)C(=O)c3cnccn3)cc2c1 (stereo not drawn) | – | inconclusive: 9.48%
CCS(=O)(=O)c1nc(S(=O)(=O)c2ccc(Cl)cc2)c(NCCOC)s1 | – | inconclusive: -5.57%
COc1ccc(OCc2nc(N)nc(Nc3ccccc3)n2)cc1 | – | inconclusive: 6.71%
CC(C)CNC(=O)CCc1c[nH]c2ccccc12 | – | inconclusive: -7.54%
COc1ccc(C(=O)N2C(=O)c3ccc(N)cc3C2=O)cc1 | – | inactive: 2.74%
Cc1cc(C)cc(C(=O)N2CCCCCC2)c1 | inconclusive: 2.59 µM [rising, partial curve, poor fit] | –
CCOc1ccc(CCNC(=O)CCCn2c(=O)c3cccn3c3cccnc32)cc1OCC | – | inactive: -2.6%
COc1cc(OC)cc(C(=O)NNC(=S)NC2CC2)c1 | inconclusive: 35.5 µM [falling, single point] | –
COc1cc(/C(C)=N\NC(=O)CSc2nc3ccccc3n2C)ccc1O | inconclusive: 0.112 µM [falling, full curve, poor fit] | –
COc1cc2cc(CNc3ccccc3)c(=O)n(CC(=O)Nc3ccccc3)c2cc1OC | – | inactive: -23.2%
COc1ccc(C2NC(=O)NC(C)=C2C(=O)OC2CCCC(C)C2)cc1 (stereo not drawn) | – | inconclusive: 1.42%
COc1ccc(C(=O)OCC(=O)N2C(C)CCCC2C)cc1[N+](=O)[O-] (stereo not drawn) | – | inconclusive: -0.602%
O=C(c1ccc(Br)cc1)N(Cc1nc2ccccc2c(=O)[nH]1)C1CCCC1 | – | inactive: 2.8%

Given with tabs: entries from further up.
SMILES	Potency	activity change, negative = inhibition
COc1cc2cc(CNc3ccccc3)c(=O)n(CC(=O)Nc3ccccc3)c2cc1OC	–	inactive: -23.2%
COc1ccc(C2NC(=O)NC(C)=C2C(=O)OC2CCCC(C)C2)cc1 (stereo not drawn)	–	inconclusive: 1.42%
COc1ccc(C(=O)OCC(=O)N2C(C)CCCC2C)cc1[N+](=O)[O-] (stereo not drawn)	–	inconclusive: -0.602%

Next records follow.

SMILES | Potency | activity change, negative = inhibition
O=C(CCSCCc1ccccn1)Nc1ccccn1 | – | inconclusive: -14.4%
O=C(c1cc(COc2ccc3ncccc3c2)on1)N1CCCC1 | – | inactive: -0.255%
CCCCC[C@@H]1C=C(C(=O)O)[C@H](c2ccc(F)cc2)N1S(=O)(=O)c1ccc(C)cc1 | – | inactive: -5.54%
COc1cccc2cc(C(=O)OCc3ccccc3)c(=O)oc12 | inconclusive: 35.5 µM [rising, single point] | –
COc1ccc(-c2nn(-c3ccccc3)cc2CNC(=O)c2cccc([N+](=O)[O-])c2)cc1 | – | inconclusive: 11.4%
COc1ccc([N+](=O)[O-])cc1C1NN=C(c2ccccc2O)S1 (stereo not drawn) | inconclusive: 35.5 µM [falling, single point] | –
CN1CCN(C(=O)CSc2nc(-c3ccncc3)ccc2C#N)CC1 | – | inactive: -1.82%
O=C(Cc1cc(=O)[nH]c(=O)[nH]1)NCc1ccc(Cl)cc1 | – | inconclusive: 5.85%
COc1ccc(CN2C(=O)c3ccccc3C2=O)cc1C(=O)Nc1ccccc1N1CCOCC1 | – | inactive: 0.557%
CC(=O)Nc1ccc(NC(=O)C(C)OC(=O)CCCN=C2NS(=O)(=O)c3ccccc32)cc1 (stereo not drawn) | – | inconclusive: -11.9%
COC(=O)c1cc(-c2ccc(Br)cc2)n[nH]1 | – | inconclusive: 8.57%
c1ccc(-n2cc(CN3CCCC(CN4CCCC4)C3)c(-c3ccc4c(c3)OCO4)n2)cc1 (stereo not drawn) | inconclusive: 35.5 µM [falling, single point] | –
Cc1ccc(C)c(C(=O)CN2C(=O)c3ccccc3S2(=O)=O)c1 | – | inactive: -17%
CCOc1ccccc1Nc1cc(C)c2cccc(C)c2n1 | – | inconclusive: 1.77%
COc1ccc(Nc2oc(-c3cccs3)nc2C#N)cc1 | – | inconclusive: -12.4%
S=c1[nH]c2cc3c(cc2[nH]1)OCCO3 | – | inconclusive: -7.7%
COc1ccc(C(=O)CSc2nc3ccccc3n2CC(=O)c2ccccc2)cc1 | – | inactive: 4.23%
CC(OC(=O)c1ccccc1C(=O)N(C)C1CCCCC1)C(=O)NC1(C#N)CCCCC1 (stereo not drawn) | – | inactive: -0.305%
CC(=O)c1ccc(N2CCN(C(=O)c3ccc(-c4ccccc4)cc3)CC2)cc1 | – | inactive: 9.03%
CCOc1cc(Cl)c(S(=O)(=O)NCc2ccccn2)cc1Cl | – | inactive: -3.21%
O=C(N/N=C/c1ccc[nH]1)c1cccc(Br)c1 | inconclusive: 29.1 µM [falling, single point] | –
CN(C)c1cccc(C(=O)NNC(=O)CN2C(=O)C3CC=CCC3C2=O)c1 (stereo not drawn) | – | inactive: 8.74%
CN(C)S(=O)(=O)c1ccc(C(=O)OCc2nnc(-c3ccccc3)o2)cc1 | – | inconclusive: 2.8%
O=c1oc2ccc(Cl)cc2cc1-c1nnc(Nc2cccc(C(F)(F)F)c2)s1 | – | inconclusive: 6.1%
Cc1cc(NC(=O)CC#N)n(-c2nc3ccccc3[nH]2)n1 | inconclusive: 11.2 µM [rising, single point] | –
Cc1ccc(-n2c(SCC(=O)N3CCCc4ccccc43)nnc2-c2cccnc2)c(C)c1 | – | inactive: 0.903%
